Measured values: US20150126573A1, “METHODS AND PHARMACEUTICAL COMPOSITIONS FOR PREVENTION OR TREATMENT OF CHRONIC OBSTRUCTIVE PULMONARY DISEASE” (INSERM (INSTITUT NATIONAL DE LA SANTE ET DE LA RECHERCHE …, priority 2012, published 2015)
At least one compound was matched to its structure with a doubt left.

Columns and labels:
Format in all cases: cell-based, human
PGE2 = PGE2 quantification in fibroblast culture/conditioned medium (Prostaglandin E2 monoclonal EIA kit); conditions: celecoxib treatment
Protocol: (§1) Fibroblasts were exposed to either PGE2 (0.5 to 50 ng ml^−1) or conditioned medium (CM) collected from fibroblasts incubated for 24 h. In different experiments cells were treated with inhibitors of COXs, agonists or antagonists of prostaglandin receptors EP2 and EP4, the antioxidant N-acetylcysteine (NAC), or the inhibitor of p53 transcriptional effects pifithriñ-α.
(§2) PGE2 was quantified by using the Prostaglandin E2 monoclonal EIA kit (Bertin Pharma, Montigny le Bretonneux, France). PGE2 receptors and enzymes involved in PGE2 synthesis were quantified by RT-qPCR. Cellular reactive oxygen species production was quantified by the DCFH-DA assay (Carter W et al., J Leukoc Biol 1994; 55:253-258).

fibroblasts = experiment: Cellular reactive oxygen species production (DCFH-DA assay) and oxidant signalling in PGE2-exposed fibroblasts; conditions: 24 h pre-treatment of fibroblasts
Protocol: as §1, §2

S-C and COPD fibroblasts = experiment: Replicative senescence of S-C and COPD fibroblasts during successive passages (repeated PGE2 exposure or COX inhibitors)
Protocol: as §1
(§3) Senescence was characterized by measuring cumulative population doubling levels (PDLs) (Holz O et al., Eur Respir J 2004; 24:575-579), telomere length (Savale L et al., Am J Respir Crit Care Med 2009), senescence associated β-galactosidase activity (SA β-Gal) (Dimri G P. Cancer Cell 2005; 7:505-512), and the expression of phospho (serine 15)-p53 p16, p21, and caspase 3 by western blot, immunofluorecence and RT-qPCR analysis. The level of 29 soluble factors in conditioned medium was quantified using the Luminex technology (Millipore, Molscheim, France).
Finally, the inventors investigated if endogenous PGE2 was involved in replicative senescence.

[1] = tested on: Non-senescent fibroblasts from S-C and COPD patients (target fibroblasts); experiment: Paracrine senescence: target fibroblasts incubated 24 h with conditioned medium (CM) from senescent fibroblasts; conditions: target cells incubated with CM from fibroblasts treated with COX inhibitor
Protocol: as §1, §3
Non-senescent fibroblasts from S-C and COPD patients (further called target fibroblasts) were incubated 24 h with conditioned medium (CM) from cells of the respective groups obtained at non-senescent and senescent passages. […] Both S-C and COPD CM obtained at senescent passage increased the percentage SA-β gal, phospho (serine 15)-p53, p21, and p16 protein expression, as well as IL-6, IL-8, MCP-1 and FGF-2 mRNA expression in target cells.

Compound: Cc1ccc(-c2cc(C(F)(F)F)nn2-c2ccc(S(N)(=O)=O)cc2)cc1 [celecoxib]
- synthesis of endogenous PGE2 induced by exogenous PGE2 (PGE2): abolished
- increase in ROS, and SA β-gal and p21 expression induced by PGE2 (fibroblasts): significantly reduced
- increase in SA-β gal, p21, p16, and cumulative PDL (S-C and COPD fibroblasts; COPD cells incubated during successive passages with inhibitor): prevented
- IL-6, IL-8, GRO, CX3CL1, and CCL7 levels in culture supernatant (S-C and COPD fibroblasts; COPD patients' fibroblasts, passage 5 and 7): parallel decrease
- levels of SA-β gal, p21, p16, and cumulative PDL (S-C and COPD fibroblasts; S-C cells incubated during successive passages with inhibitor): did not modify
- decrease in IL-6, IL-8, GRO, CX3CL1, and CCL7 levels in culture supernatant (S-C and COPD fibroblasts; S-C patients' fibroblasts): not observed
- percentage of SA β-gal positive cells and p21 protein expression [1]: parallel significant reduction
